# These are yes or no findings as the source states them, for the method shown. Binding seen in cells or lysates may run through a third protein. Some entries that bind do so weakly or less than the wild type. Tags and fused reporters may be left off the sequences shown.
# Protein sequences, listed by entry. Tags and fused reporters are not part of them.
# UniProt P39940: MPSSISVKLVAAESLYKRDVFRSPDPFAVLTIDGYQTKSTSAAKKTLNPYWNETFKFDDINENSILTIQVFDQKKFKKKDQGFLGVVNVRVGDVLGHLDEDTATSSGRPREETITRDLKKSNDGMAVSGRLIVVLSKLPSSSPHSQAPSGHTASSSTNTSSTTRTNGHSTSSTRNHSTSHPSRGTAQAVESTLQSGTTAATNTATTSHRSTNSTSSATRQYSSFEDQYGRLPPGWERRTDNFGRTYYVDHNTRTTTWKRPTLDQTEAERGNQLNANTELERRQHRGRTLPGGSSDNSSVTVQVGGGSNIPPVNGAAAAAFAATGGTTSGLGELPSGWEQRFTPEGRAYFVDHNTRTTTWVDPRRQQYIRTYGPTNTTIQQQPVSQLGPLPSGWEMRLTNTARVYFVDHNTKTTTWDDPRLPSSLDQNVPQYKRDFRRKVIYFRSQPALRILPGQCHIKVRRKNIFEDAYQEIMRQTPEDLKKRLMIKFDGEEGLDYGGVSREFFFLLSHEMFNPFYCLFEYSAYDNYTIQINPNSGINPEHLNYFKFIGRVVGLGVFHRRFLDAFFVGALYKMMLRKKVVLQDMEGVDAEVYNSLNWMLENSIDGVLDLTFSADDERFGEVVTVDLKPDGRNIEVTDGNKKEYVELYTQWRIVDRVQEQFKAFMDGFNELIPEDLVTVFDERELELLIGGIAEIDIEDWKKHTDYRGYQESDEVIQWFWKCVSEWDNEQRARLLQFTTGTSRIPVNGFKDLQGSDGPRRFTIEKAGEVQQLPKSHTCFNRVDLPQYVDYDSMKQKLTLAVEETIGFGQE
# T1: Ubp3, endogenously C-terminally TAP-tagged (S. cerevisiae (endogenous, tagged at its locus)) (UniProt Q01477)
# T1 sequence: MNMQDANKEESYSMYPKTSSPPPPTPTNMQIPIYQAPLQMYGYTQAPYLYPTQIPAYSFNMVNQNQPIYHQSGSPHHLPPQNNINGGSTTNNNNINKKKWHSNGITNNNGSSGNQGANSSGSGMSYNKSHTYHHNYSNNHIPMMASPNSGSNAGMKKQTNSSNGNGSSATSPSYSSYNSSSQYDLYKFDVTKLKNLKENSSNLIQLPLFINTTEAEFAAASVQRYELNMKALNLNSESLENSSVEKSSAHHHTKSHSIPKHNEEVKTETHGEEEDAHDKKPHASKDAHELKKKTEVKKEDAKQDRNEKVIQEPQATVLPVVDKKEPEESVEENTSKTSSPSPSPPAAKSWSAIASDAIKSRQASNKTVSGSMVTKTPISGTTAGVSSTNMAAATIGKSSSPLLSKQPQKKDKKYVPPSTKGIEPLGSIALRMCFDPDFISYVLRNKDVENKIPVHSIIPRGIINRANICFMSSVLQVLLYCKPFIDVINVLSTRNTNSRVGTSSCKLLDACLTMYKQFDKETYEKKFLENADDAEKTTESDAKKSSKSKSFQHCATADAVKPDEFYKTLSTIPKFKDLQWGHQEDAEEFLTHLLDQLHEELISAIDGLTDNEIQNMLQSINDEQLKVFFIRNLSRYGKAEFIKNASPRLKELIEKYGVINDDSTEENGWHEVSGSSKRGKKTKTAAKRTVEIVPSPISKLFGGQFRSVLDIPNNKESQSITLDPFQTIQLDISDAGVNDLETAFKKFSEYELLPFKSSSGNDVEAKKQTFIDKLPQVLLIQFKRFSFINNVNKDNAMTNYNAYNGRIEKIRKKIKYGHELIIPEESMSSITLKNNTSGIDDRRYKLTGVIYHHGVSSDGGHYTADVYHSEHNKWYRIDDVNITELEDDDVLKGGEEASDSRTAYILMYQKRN
# T2: Ubp2, endogenously C-terminally TAP-tagged (S. cerevisiae (endogenous, tagged at its locus)) (UniProt Q01476)
# T2 sequence: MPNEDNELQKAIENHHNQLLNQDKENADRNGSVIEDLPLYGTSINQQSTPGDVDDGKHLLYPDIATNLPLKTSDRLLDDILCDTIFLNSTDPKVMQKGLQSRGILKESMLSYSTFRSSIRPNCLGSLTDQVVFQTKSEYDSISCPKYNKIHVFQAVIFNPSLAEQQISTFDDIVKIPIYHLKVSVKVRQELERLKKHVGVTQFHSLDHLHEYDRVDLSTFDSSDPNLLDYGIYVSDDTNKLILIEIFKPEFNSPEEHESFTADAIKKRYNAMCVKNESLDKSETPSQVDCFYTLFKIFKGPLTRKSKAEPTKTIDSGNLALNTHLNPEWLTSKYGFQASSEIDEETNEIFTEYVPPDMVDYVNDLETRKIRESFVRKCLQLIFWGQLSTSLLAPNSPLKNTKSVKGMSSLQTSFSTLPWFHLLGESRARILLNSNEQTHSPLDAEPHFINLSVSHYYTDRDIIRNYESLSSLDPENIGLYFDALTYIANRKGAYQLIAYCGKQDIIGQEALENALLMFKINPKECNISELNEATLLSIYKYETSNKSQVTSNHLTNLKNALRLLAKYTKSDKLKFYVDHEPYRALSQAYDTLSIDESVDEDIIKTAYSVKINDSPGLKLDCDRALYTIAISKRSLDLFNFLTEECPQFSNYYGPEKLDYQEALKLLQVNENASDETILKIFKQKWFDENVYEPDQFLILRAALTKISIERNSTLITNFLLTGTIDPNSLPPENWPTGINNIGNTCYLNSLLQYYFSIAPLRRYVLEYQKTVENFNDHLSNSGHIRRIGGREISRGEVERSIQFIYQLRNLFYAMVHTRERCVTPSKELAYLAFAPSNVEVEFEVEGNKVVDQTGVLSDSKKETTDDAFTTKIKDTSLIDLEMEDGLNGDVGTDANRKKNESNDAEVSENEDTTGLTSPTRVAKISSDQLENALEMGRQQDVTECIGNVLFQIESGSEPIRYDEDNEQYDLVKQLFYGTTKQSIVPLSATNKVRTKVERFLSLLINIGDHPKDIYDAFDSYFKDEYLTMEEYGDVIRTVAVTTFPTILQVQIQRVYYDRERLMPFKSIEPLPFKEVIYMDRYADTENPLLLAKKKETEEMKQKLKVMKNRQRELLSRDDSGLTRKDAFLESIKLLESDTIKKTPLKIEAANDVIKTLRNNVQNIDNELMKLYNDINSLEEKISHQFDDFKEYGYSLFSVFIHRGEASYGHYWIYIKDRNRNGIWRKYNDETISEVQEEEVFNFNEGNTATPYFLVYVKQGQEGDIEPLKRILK
# B1: Ubp3, endogenously C-terminally TAP-tagged (enzyme, UniProt Q01477 1-912)
# chain: MNMQDANKEESYSMYPKTSSPPPPTPTNMQIPIYQAPLQMYGYTQAPYLYPTQIPAYSFNMVNQNQPIYHQSGSPHHLPPQNNINGGSTTNNNNINKKKWHSNGITNNNGSSGNQGANSSGSGMSYNKSHTYHHNYSNNHIPMMASPNSGSNAGMKKQTNSSNGNGSSATSPSYSSYNSSSQYDLYKFDVTKLKNLKENSSNLIQLPLFINTTEAEFAAASVQRYELNMKALNLNSESLENSSVEKSSAHHHTKSHSIPKHNEEVKTETHGEEEDAHDKKPHASKDAHELKKKTEVKKEDAKQDRNEKVIQEPQATVLPVVDKKEPEESVEENTSKTSSPSPSPPAAKSWSAIASDAIKSRQASNKTVSGSMVTKTPISGTTAGVSSTNMAAATIGKSSSPLLSKQPQKKDKKYVPPSTKGIEPLGSIALRMCFDPDFISYVLRNKDVENKIPVHSIIPRGIINRANICFMSSVLQVLLYCKPFIDVINVLSTRNTNSRVGTSSCKLLDACLTMYKQFDKETYEKKFLENADDAEKTTESDAKKSSKSKSFQHCATADAVKPDEFYKTLSTIPKFKDLQWGHQEDAEEFLTHLLDQLHEELISAIDGLTDNEIQNMLQSINDEQLKVFFIRNLSRYGKAEFIKNASPRLKELIEKYGVINDDSTEENGWHEVSGSSKRGKKTKTAAKRTVEIVPSPISKLFGGQFRSVLDIPNNKESQSITLDPFQTIQLDISDAGVNDLETAFKKFSEYELLPFKSSSGNDVEAKKQTFIDKLPQVLLIQFKRFSFINNVNKDNAMTNYNAYNGRIEKIRKKIKYGHELIIPEESMSSITLKNNTSGIDDRRYKLTGVIYHHGVSSDGGHYTADVYHSEHNKWYRIDDVNITELEDDDVLKGGEEASDSRTAYILMYQKRN
# B2: Pgk1 (3-phosphoglycerate kinase) (protein, UniProt P00560 1-416)
# chain: MSLSSKLSVQDLDLKDKRVFIRVDFNVPLDGKKITSNQRIVAALPTIKYVLEHHPRYVVLASHLGRPNGERNEKYSLAPVAKELQSLLGKDVTFLNDCVGPEVEAAVKASAPGSVILLENLRYHIEEEGSRKVDGQKVKASKEDVQKFRHELSSLADVYINDAFGTAHRAHSSMVGFDLPQRAAGFLLEKELKYFGKALENPTRPFLAILGGAKVADKIQLIDNLLDKVDSIIIGGGMAFTFKKVLENTEIGDSIFDKAGAEIVPKLMEKAKAKGVEVVLPVDFIIADAFSADANTKTVTDKEGIPAGWQGLDNGPESRKLFAATVAKAKTIVWNGPPGVFEFEKFAAGTKALLDEVVKSSAAGNTVIIGGGDTATVAKKYGVTDKISHVSTGGGASLELLEGKELPGVAFLSEKK
# How the values were obtained:
# [1] = target: T1, Ubp3, endogenously C-terminally TAP-tagged (S. cerevisiae (endogenous, tagged at its locus)); assay: co-IP; IP of TAP-tagged Ubp2 or Ubp3 from cells crosslinked in vivo with 1% formaldehyde, kept at 25 °C or heat shocked (40 °C, 20 min); modified RIPA lysis, diluted to 0.1% SDS, washes with 300 mM NaCl; western blots for 3xHA-Rsp5 and Pgk1
# [2] = target: 3xHA-tagged Rsp5 (S. cerevisiae) (UniProt P39940); assay: co-IP; reciprocal experiments to a1 (Supplementary Fig. 2b,c); crosslinked cells, with and without HS
# [3] = target: T2, Ubp2, endogenously C-terminally TAP-tagged (S. cerevisiae (endogenous, tagged at its locus)); assay: co-IP; IP of TAP-tagged Ubp2 or Ubp3 from cells crosslinked in vivo with 1% formaldehyde, kept at 25 °C or heat shocked (40 °C, 20 min); modified RIPA lysis, diluted to 0.1% SDS, washes with 300 mM NaCl; western blots for 3xHA-Rsp5 and Pgk1
Molecule,binding [1],binding [2],binding [3]
3xHA-tagged Rsp5 (from UniProt P39940 1-809) (enzyme),binds,–,–
B1,–,binds,–
B2,no binding,–,no binding

# From paper PMC5059457
